The list shows a part of the results. Further columns of the screen follow, without active or inactive calls. Compounds called inactive in the main read-out are mostly missing here. Words in brackets tell the shape of the fitted curve; partial curves, single points and poor fits give uncertain potencies.

A short description of test [1]: qHTS Assay for Modulators of Human Peripheral Myelin Protein 22 (PMP22) Expression/Activity (AID 1967). The following applies: Cell-based PMP22 reporter, dual-color luciferase ratio. Put shortly:
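Luminescence ratio of Pmp22 promoter-driven green luciferase to EF-alpha-driven red luciferase, in engineered mouse MSC80 Schwann cells, served as read-out. Compounds were incubated 24h; untreated cells defined 0% Activity; curves were classified by r2, magnitude and activity.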
Background: Quantitative high-throughput screening tests each substance at several concentrations.

Test [2] can be described thus: qHTS Validation Assay to Find Inhibitors of Chronic Active B-Cell Receptor Signaling (AID 485345). The note with it: ABC-DLBCL cells, chronic BCR signaling reporter. In short, it runs like this:
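TMD8 ABC-DLBCL cells with dox-inducible green luciferase–IκBα fusion and red native luciferase; compounds 46 uM–3 nM, 4 h at 37C with doxycycline in 0.5% FBS IMDM. Green/red ratio normalized to basal and 10 uM MG-132.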

Test [3] is described as follows: Nrf2 qHTS screen for inhibitors: Validation (AID 493153). The note with it: A549 ARE-Fluc reporter, 18-24 h; AC50: CellTiter-Fluor fluorescence read, measured here: cytotoxicity CellTiter-Fluor AC50; viability change: measured here: cytotoxicity max response. In short, it runs like this:
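Concentration-response test in A549 ARE_Fluc reporter cells (5% FBS OPTI-MEM), compound exposure 18-24 h at 37°C, 5% CO2. Cell viability measured first by CellTiter-Fluor fluorescence; ARE-driven luciferase luminescence then measured as Nrf2 activity.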

A short description of test [4]: S16 Schwann cell PMP22 intronic element beta-lactamase assay (AID 624044). The following applies: S16 rat Schwann cells, PMP22 element beta-lactamase FRET, 24 h; measured here: 460 nm blue channel. In short, it runs like this:
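Beta-lactamase reporter under a PMP22 intronic regulatory element in stable S16 rat Schwann cells; 24 h compound exposure. 460 nm blue signal normalized between DMSO (0%) and potassium clavulanate, with 535 nm FRET tracking viability; curves classed by r2 and response.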

Test [5] is described as follows: qHTS Assay for Inhibitors of PDE-IV (AID 607). The following applies: HEK293 ACTOne CNG channel cells, membrane potential fluorescence; measured here: parental cell counter-screen. Put shortly: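 ACTOne HEK293 cells carry a modified cAMP-gated CNG channel and express endogenous PDE4; plated 1000 cells/well, compounds up to 22.9 uM final. Membrane-potential dye fluorescence (ex 535/em 590) was read; parental cells received 10 uM forskolin + 100 uM RO 20-1724.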

[6] abbreviates: measured here: red reporter channel AC50, EF-alpha promoter control reporter in MSC80 mouse Schwann cells.
Setting [7] is: measured here: green reporter channel AC50, mouse Pmp22 promoter in mouse Schwann cells.
The mark [8] stands for this setting: measured here: CBG/CBR ratio read-out.
Where [9] appears, read: measured here: CBR control luciferase (viability counter).

Regarding `CC(N=C(NC#N)Nc1ccncc1)C(C)(C)C` (configuration not stated), in test [1] (setting [6]), the AC50 is 95.3 µM [falling, single point].

With `CCOC(=O)C1=C(C)NC(C)=C(C(=O)OC)C1c1cccc(Cl)c1Cl` (configuration not stated), the AC50 in test [1] (setting [7]) was 37.9 µM [falling, partial curve]; in test [1] (setting [6]) it was 23.9 µM [falling, full curve].

On to `O=C(O)/C(=C/c1c(C(=O)O)[nH]c2cc(Cl)cc(Cl)c12)c1ccccc1`, for which the AC50 was 75.7 µM [falling, partial curve] in test [1] (setting [6]); 16.4 µM [falling, single point] in test [2] (setting [8]); 18.4 µM [falling, single point] in test [2] (setting [9]).

With `OC[C@H]1O[C@@H](n2cnc3c(NC4CCCCC4)ncnc32)[C@H](O)[C@@H]1O`, the AC50 in test [1] (setting [6]) is 75.7 µM [falling, partial curve]; in test [2] (setting [8]), 6.51 µM [falling, partial curve]; in test [2] (setting [9]) it was 1.64 µM [rising, partial curve].

As for `COc1cc2nc(N3CCN(C(=O)OCc4ccccc4)C(C(=O)NC(C)(C)C)C3)nc(N)c2cc1OC` (configuration not stated), the AC50 is 30.1 µM [falling, partial curve] in test [1] (setting [7]); 33.8 µM [falling, partial curve] in test [1] (setting [6]); 10.3 µM [falling, partial curve] in test [2] (setting [8]); 1.16 µM [rising, full curve] in test [2] (setting [9]).

As to `Nc1ccc2c3c(cccc13)C(=O)NC2=O`, the AC50 in test [1] (setting [6]) was 37.9 µM [falling, partial curve, poor fit]; in test [2] (setting [9]) it was 0.259 µM [falling, full curve, poor fit]; in test [3], 16.4 µM [rising, partial curve, poor fit]. Moreover, in test [3], the viability change was found to be 23.1%.

As to `OCc1cc(C(O)CNCCCCCCOCCCCc2ccccc2)ccc1O` (configuration not stated), the AC50 is 26.9 µM [falling, full curve] in test [1] (setting [7]) and 33.8 µM [falling, full curve] in test [1] (setting [6]). Besides, the viability change in test [3] was -11.4%.

For `O=c1[nH]c2cc(C(F)(F)F)ccc2n1-c1cc(C(F)(F)F)ccc1O`, the AC50 was 75.7 µM [falling, single point] in test [1] (setting [6]) and 18.4 µM [falling, single point] in test [2] (setting [8]).

On to `CC(C(O)c1ccc(O)cc1)N1CCC(Cc2ccccc2)CC1` (configuration not stated), for which the AC50 in test [1] (setting [7]) was 33.8 µM [falling, full curve]; in test [1] (setting [6]), 42.6 µM [falling, partial curve]; in test [2] (setting [9]), 29.1 µM [falling, single point]; in test [4] it was 0.0158 µM [falling, full curve, poor fit].

`CN1CCC2(CCN3CCc4c(oc5ccccc45)C3C2)N(C)C1=O` (configuration not stated): the AC50 in test [1] (setting [7]) was 75.7 µM [falling, single point]; in test [1] (setting [6]), 84.9 µM [falling, single point]. Besides, the viability change in test [3] is -4%.

Turning to `c1ccc(CN2CCC3(CCCc4ccccc43)CC2)cc1`, the AC50 in test [5] was 15.8 µM [rising, partial curve]; in test [1] (setting [7]), 67.5 µM [falling, partial curve]; in test [1] (setting [6]), 84.9 µM [falling, single point].

As for `C=C[C@@H]1CN2CC[C@@H]1C[C@H]2[C@H](O)c1ccnc2ccc(OC)cc12`, the AC50 in test [1] (setting [7]) is 75.7 µM [falling, single point]; in test [1] (setting [6]), 84.9 µM [falling, single point].

For the compound `C=C[C@@H]1CN2CC[C@@H]1C[C@@H]2[C@H](O)c1ccnc2ccc(OC)cc12`, the AC50 in test [1] (setting [7]) is 67.5 µM [falling, partial curve]; in test [1] (setting [6]) it was 84.9 µM [falling, single point].

On to `Nc1ccc(-c2nc3ccc(-c4nc5ccc(N)cc5[nH]4)cc3[nH]2)cc1`, for which the AC50 in test [1] (setting [6]) is 75.7 µM [falling, partial curve, poor fit]; in test [2] (setting [9]), 29.1 µM [falling, single point].

Consider `CC1=C(C)C(=O)C(CCCCC#CCCCC#CCO)=C(C)C1=O`, for which the AC50 is 60.1 µM [falling, partial curve] in test [1] (setting [7]); 75.7 µM [falling, partial curve] in test [1] (setting [6]); 16.4 µM [falling, partial curve] in test [2] (setting [8]).

Consider `Fc1cccc(/C=N/N=C/c2cccc(F)c2)c1`, for which the AC50 is 0.953 µM [rising, full curve] in test [1] (setting [6]) and 1.03 µM [rising, partial curve] in test [2] (setting [9]).

Consider `COc1cccc(OC)c1OCCNCC1COc2ccccc2O1` (configuration not stated), for which the AC50 in test [1] (setting [7]) was 84.9 µM [falling, partial curve, poor fit]; in test [1] (setting [6]), 95.3 µM [falling, single point].

With `C1CCC(N=C(NC23CC4CC(CC(C4)C2)C3)N2CCOCC2)CC1`, the AC50 in test [1] (setting [7]) was 75.7 µM [falling, single point]; in test [1] (setting [6]), 84.9 µM [falling, partial curve].

A word on the AC50: it is the concentration giving half of the maximal activity seen.

Values taken from PubChem BioAssay (NCATS).
